Assay results taken from publication PMC5528831.
No constants are given. Whether binding was seen depends on the method and setting. Blank lines part the entries; values can stand above or below the binder they belong to.

Experiments:
[1] = substrate: T1, P element-induced wimpy testis protein (Piwi) (Drosophila) (UniProt Q9VKM1); test: two-hybrid; yeast interaction-mating, strains PJ69-4a and PJ69-4alpha; diploids replica-plated on -W -L -A or -W -L -H + 30 mM 3AT; growth scored after 6 days at 30°C; Cbp80 tested in the BD and in the AD vector with Piwi
T1 sequence: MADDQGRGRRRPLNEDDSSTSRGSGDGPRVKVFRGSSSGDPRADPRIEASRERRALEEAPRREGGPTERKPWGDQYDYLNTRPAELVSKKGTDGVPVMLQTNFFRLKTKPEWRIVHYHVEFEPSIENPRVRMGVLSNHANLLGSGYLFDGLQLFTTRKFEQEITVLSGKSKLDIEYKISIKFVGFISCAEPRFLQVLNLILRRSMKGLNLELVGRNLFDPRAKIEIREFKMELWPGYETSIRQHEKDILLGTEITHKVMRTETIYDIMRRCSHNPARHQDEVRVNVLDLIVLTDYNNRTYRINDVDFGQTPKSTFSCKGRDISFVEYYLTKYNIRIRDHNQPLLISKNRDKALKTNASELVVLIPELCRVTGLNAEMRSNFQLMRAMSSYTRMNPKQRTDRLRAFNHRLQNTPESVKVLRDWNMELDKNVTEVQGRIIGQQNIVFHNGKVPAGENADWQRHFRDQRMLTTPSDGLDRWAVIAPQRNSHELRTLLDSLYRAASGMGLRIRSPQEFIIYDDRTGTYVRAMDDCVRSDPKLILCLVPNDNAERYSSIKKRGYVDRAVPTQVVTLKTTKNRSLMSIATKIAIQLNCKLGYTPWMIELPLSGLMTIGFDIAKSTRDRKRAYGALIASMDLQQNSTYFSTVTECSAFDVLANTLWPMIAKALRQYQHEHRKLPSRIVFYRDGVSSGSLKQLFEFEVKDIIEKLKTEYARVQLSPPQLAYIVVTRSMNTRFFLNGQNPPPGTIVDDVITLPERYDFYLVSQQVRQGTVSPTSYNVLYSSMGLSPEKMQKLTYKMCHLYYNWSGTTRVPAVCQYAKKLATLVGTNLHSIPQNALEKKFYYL

[2] = target: T2, Cap binding protein 80 (Cbp80) (Drosophila) (UniProt Q7K4N3); test: as above
T2 sequence: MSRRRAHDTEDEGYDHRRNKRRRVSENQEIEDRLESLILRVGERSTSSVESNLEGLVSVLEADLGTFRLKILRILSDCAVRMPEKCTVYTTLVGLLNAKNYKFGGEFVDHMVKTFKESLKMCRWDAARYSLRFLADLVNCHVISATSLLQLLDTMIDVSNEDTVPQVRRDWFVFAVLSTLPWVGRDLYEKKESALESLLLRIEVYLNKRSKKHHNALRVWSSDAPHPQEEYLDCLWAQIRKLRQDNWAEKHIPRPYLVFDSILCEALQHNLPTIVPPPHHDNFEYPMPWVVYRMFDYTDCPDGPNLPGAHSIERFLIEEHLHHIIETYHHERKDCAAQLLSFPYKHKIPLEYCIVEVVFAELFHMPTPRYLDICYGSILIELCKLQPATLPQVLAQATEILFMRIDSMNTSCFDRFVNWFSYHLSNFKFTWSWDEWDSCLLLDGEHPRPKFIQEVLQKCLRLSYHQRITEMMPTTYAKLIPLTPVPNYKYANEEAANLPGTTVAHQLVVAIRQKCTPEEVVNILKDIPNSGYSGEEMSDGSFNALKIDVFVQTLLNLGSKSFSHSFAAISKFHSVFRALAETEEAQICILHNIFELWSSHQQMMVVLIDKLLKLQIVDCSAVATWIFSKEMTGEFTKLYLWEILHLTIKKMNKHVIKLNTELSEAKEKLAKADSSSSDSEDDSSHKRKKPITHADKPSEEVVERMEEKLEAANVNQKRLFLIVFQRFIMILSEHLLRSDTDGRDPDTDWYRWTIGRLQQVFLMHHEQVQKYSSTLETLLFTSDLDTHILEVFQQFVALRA

- binding [1]: no binding
B1: Cap binding protein 80 (Cbp80) (protein, UniProt Q7K4N3 1-800)
chain: T2 sequence

- binding [2]: no binding
B2: P element-induced wimpy testis protein (Piwi) (protein, UniProt Q9VKM1 1-843)
chain: T1 sequence
